Assay results as given in PubChem BioAssay (NCATS).
Inconclusive means that the source gave no clear call. Such entries were picked first, then a sample of the others. Potencies beside an inconclusive call are fits to weak or partial responses and may not hold up. Active and inactive are the calls of the source. Calls follow the shape of the dose curve; as a rule, active = well fitted inhibition curve with a large enough effect; inconclusive = small, poorly fitted or top-dose-only effect; inactive = no such curve, though single readings can be large or run the other way.
Potency is read from the fitted curve at half-maximal effect.

Chains of the proteins cited; added tags and fusions are not shown. Lines headed by an entry give the natural chain unless they say otherwise; changes in a name come on top.
UniProt P07378: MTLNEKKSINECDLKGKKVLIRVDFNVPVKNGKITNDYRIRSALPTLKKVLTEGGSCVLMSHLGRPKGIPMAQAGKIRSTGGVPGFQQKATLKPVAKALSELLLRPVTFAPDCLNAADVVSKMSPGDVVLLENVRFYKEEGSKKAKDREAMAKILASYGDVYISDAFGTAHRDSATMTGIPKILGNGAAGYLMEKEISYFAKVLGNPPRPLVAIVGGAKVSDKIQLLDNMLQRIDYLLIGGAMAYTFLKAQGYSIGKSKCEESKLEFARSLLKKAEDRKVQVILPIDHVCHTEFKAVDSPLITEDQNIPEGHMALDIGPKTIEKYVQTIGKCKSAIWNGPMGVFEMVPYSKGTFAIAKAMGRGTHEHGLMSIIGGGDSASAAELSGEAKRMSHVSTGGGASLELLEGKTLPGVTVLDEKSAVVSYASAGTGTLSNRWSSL

These compounds were tested against Phosphoglycerate kinase, glycosomal (Trypanosoma brucei brucei) (UniProt P07378) (assay: qHTS for inhibitors of Phosphogylcerate Kinase: Hit Validation Screen (AID 686980; as to Potency: nearly all actives have a fitted effect of over 65% in size)). Conditions: TbPGK coupled GAPDH assay, Kinase-Glo luminescence; series mostly up to 57.5 µM; activity change, negative = inhibition: at the top concentration.
From the text: Several species of the Trypanosomatidae family of parasitic protozoans cause a spectrum of diseases throughout the tropical and subtropical world. Sleeping sickness, caused by two subspecies of Trypanosoma brucei, is endemic to areas of sub-Saharan Africa, while Chagas disease, a manifestation of Trypanosoma cruzi infection, is prevalent throughout Central and South America. In addition, many species of Leishmania are responsible for a range of cutaneous and visceral diseases, causing ulcers, destructive lesions and kalaazar, a lethal infection of the viscera. Collectively, these organisms infect 30 million people worldwide (~500 million live in endemic areas), and account for ~130,000 deaths annually. Given their debilitating and prevalent nature, trypanosomatid parasites impose a heavy medical, economic and social burden on entire populations, primarily in the developing world. The problem is further exacerbated by the fact that existing treatments have progressed little in the past 50 years, and current drugs show high toxicity and poor efficacy. […] Blood-stream stages of T. brucei are entirely dependent on glycolysis as a source of ATP, and the tricarboxylic acid cycle and oxidative phosphorylation are both repressed. Glycolysis in axenically cultured T. cruzi, representing the intracellular pathogenic stage, is also essential for these parasites. […] Previous studies have shown that the glycolytic enzyme, phosphoglycerate kinase (PGK), is a viable target for drugs to kill these parasites. […] NIH Molecular Libraries Probe Production Network [MLPCN] NIH Chemical Genomics Center [NCGC] MLPCN Grant: R03 MH093212 PI Name: Malcolm Walkinshaw, University of Edinburgh
3ul of substrate/PGK buffer (columns 1,2,5-48) are dispensed into Greiner white solid bottom 1536-well assay plates; columns 3-4 receive only TEA buffer as 0x PGK controls. Compounds are then transferred via Kalypsys pin tool equipped with 1536-pin array (10nl slotted pins, V&P Scientific, San Diego, CA). Following addition of compound, 1ul of GAPDH (100nM final concentration, all columns) is added to initiate the reaction (this upstream coupling enzyme is necessary for in-well production of PGK substrate, 1,3-bisphosphoglycerate (1,3-BPG), which is unstable and not commercially available). The plates are then incubated at room temperature for 60 minutes. Kinase-Glo Plus reagent is added (2ul) and plates incubated for 10 minutes, before being transferred to a ViewLux high-throughput CCD imager (PerkinElmer) wherein single end-point measurements of luminescence are acquired using a clear filter. All reagents are diluted in an assay buffer consisting of 100mM TEA (pH 7.6), 5mM MgCl2 and 0.01% Tween-20.
In the case of `NNc1nc2c(Cl)c(Cl)ccc2s1`, the Potency is reported as inconclusive: 32.6 µM [inhibitor, partial curve].
`O=c1cc2c(=O)oc3cc(O)c(O)oc3c2c(O)c1O` was tested, and the Potency was inconclusive: 0.651 µM [inhibitor, full curve].
In the case of `O=C(O)CCCNC(=O)/C=C/c1ccco1`, the Potency is reported as inconclusive: 5.17 µM [inhibitor, full curve].
For `CS(=O)(=O)c1ccc2c(c1)sc1nc(=O)c(/C=C3/C=CC(=O)C(O)=C3)c(N)n12`, the Potency was inconclusive: 4.11 µM [inhibitor, full curve].
For `CCn1c(SCc2nc3sc(C(=O)O)c(C)c3c(=O)[nH]2)nc2ccccc21`, the Potency was inconclusive: 20.6 µM [inhibitor, partial curve].
With `CCCCC[C@H](O)/C=C/[C@@H]1[C@@H](C/C=C\CCCC(=O)OC)[C@@H](O)C[C@H]1O` the “activity change, negative = inhibition” value was inactive: 3.73%.
For `CC(C(=O)O)N1C(=O)/C(=C/C=C/c2ccco2)SC1=S` (stereo not drawn), the Potency was active: 2.91 µM.
For `CN1/C(=C/C=C/c2n(C)c3cc([N+](=O)[O-])c([N+](=O)[O-])cc3[n+]2C)C(C)(C)c2ccccc21`, the Potency was inconclusive: 13 µM [inhibitor, partial curve].
`COc1cc(/C=C2\SC(=O)N(CC(=O)Nc3cccc(C)c3)C2=O)cc([N+](=O)[O-])c1O` was tested, and the Potency was inconclusive: 46.1 µM [inhibitor, single point].
With `O=C(Oc1ccc2c(c1)OCO2)c1cc2c(s1)CCC2` the Potency was inconclusive: 10.3 µM [inhibitor, partial curve].
With `O=C1CC(=O)N(Cc2ccco2)C(=S)N1` the “activity change, negative = inhibition” value was inactive: -96.8%.
In the case of `Cc1ccc(C)n1/N=C1/NC(=O)CS1`, the Potency is reported as inconclusive: 29.1 µM [inhibitor, partial curve].
With `COc1ccc(/C=N/NC(=O)c2cc(O)c(O)c(O)c2)cc1Cn1cc([N+](=O)[O-])cn1` the Potency was inconclusive: 5.17 µM [inhibitor, full curve].
